This passage reports binding results from publication PMC7878863.

Sequences of proteins named here, by UniProt entry; tags and fusion partners are left off. Residues count along the entry.
UniProt P02545, residues 1-646: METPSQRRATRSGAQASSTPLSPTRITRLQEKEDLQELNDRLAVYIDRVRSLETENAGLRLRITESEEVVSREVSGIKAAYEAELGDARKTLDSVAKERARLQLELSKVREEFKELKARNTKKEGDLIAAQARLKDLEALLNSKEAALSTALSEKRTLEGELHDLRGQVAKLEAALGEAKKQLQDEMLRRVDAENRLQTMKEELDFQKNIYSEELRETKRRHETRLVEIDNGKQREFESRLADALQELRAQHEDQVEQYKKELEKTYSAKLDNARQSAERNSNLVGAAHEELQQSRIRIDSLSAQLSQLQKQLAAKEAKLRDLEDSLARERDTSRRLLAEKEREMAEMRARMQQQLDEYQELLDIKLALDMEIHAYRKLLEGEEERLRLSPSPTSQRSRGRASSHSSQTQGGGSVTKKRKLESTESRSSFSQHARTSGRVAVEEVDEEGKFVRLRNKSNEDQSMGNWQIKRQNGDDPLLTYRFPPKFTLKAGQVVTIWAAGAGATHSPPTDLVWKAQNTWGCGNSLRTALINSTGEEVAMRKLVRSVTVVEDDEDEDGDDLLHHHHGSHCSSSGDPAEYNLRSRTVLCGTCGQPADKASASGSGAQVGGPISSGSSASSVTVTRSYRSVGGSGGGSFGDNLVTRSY

No constants are given. Whether binding was seen depends on the method and setting. In cells and extracts the contact can be indirect. Some results given as binding are weak or reduced against the parent protein; the word gives no strength. Sequences can lack the tags named with a protein.

In the assay the target is T1, YFP-SPANX-A (human) (UniProt Q9NS26).
T1 sequence: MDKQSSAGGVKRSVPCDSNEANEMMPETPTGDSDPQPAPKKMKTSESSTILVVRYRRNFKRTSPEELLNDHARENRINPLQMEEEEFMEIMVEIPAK
The assay can be described thus: co-IP; YFP-SPANX-A immune complexes from transfected A375 cells, western blot for Lamin A/C (N = 3). In general terms: A western blot detects proteins with antibodies after separation by electrophoresis.

In the case of “Lamin-A/C (LMNA) (from UniProt P02545 1-646)”, the binding entry is given as “binds”.
